Laboratory results taken from the supplement of paper PMC7830784.
Where a name gives a salt, the structure may show the parent alone. Some of the results follow. Most values lie within the scatter of the assay; repeated measurements hardly agree.

These molecules were tested on Brugia pahangi adult female (assay: motility inhibition on day 3 relative to DMSO vehicle; higher = more active). Details: 10 µM; 3 days.

| Compound | motility inhibition on day 3 |
| --- | --- |
| CN(C)C(=O)Oc1cc(OC(=O)N(C)C)cc(C(O)CNC(C)(C)C)c1 (stereo not given) [bambuterol hydrochloride] | 0.26% |
| C[N+]1(C)[C@@H]2C[C@@H](OC(=O)[C@H](CO)c3ccccc3)C[C@H]1[C@@H]1O[C@@H]12 [methscopolamine bromide] | 12.4% |
| C[N+]1(C)[C@@H]2C[C@@H](OC(=O)[C@H](CO)c3ccccc3)C[C@H]1[C@@H]1O[C@@H]12 [Scopolamine Methyl Bromide] | 34.4% |
| CCn1cc(C(=O)O)c(=O)c2cc3c(cc21)OCO3 [oxolinic acid] | 22.6% |
| CCN(C)C(=O)Oc1cccc([C@H](C)N(C)C)c1 [rivastigmine tartrate] | 9.42% |
| COC(=O)C1=CCCN(C)C1 [Arecoline hydrobromide] | 33.8% |
| COc1cc2c(cc1OC)[C@@]13CCN4CC5=CCO[C@H]6CC(=O)N2[C@H]1[C@H]6[C@H]5C[C@H]43 [brucine] | 0.779% |
| CC(C)(C)NCC(O)c1cc(Cl)c(N)c(Cl)c1 (stereo not given) [clenbuterol hydrochloride] | 8.32% |
| O=C(NC(=O)c1c(F)cccc1F)Nc1cc(Cl)c(OC(F)(F)C(F)C(F)(F)F)cc1Cl (stereo not given) [lufenuron] | 56% |
| CNCC(=O)c1ccc(O)c(O)c1 [adrenolone hydrochloride] | 8.74% |
| COc1ccc(Cc2nccc3cc(OC)c(OC)cc23)cc1OC [Papaverine hydrochloride] | 10.9% |
| CCC1(CC)C(=O)C=CNC1=O [pyrithyldione] | 18.1% |
| C[C@]12CC[C@H]3[C@@H](CC[C@@]45O[C@@H]4C(O)=C(C#N)C[C@]35C)[C@@H]1CC[C@@H]2O [trilostane] | < 0% |
| O=C(N/N=C/c1ccc([N+](=O)[O-])o1)c1cc([N+](=O)[O-])cc([N+](=O)[O-])c1O [nifursol] | 15% |
| Oc1cc(Cl)ccc1Oc1ccc(Cl)cc1Cl [triclosan] | 35.7% |
| CC1(C)C(C=C(Cl)Cl)C1C(=O)OC(C#N)c1cccc(Oc2ccccc2)c1 (stereo not given) [cypermethrin] | 13.1% |
| O=C1CN=C(c2ccccn2)c2cc(Br)ccc2N1 [Bromazepam] | 0.612% |
| Cc1nnc2n1-c1ccc(Cl)cc1C(c1ccccc1Cl)=NC2 [Triazolam] | 12.6% |
| COc1ccc(CCN2CCC(Nc3nc4ccccc4n3Cc3ccc(F)cc3)CC2)cc1 [astemizole] | 25.9% |
| CC(=O)O[C@H]1C[C@H](O[C@H]2[C@@H](O)C[C@H](O[C@H]3[C@@H](O)C[C@H](O[C@H]4CC[C@@]5(C)[C@H](CC[C@@H]6[C@@H]5C[C@@H](O)[C@]5(C)[C@@H](C7=CC(=O)OC7)CC[C@]65O)C4)O[C@@H]3C)O[C@@H]2C)O[C@H](C)[C@H]1O[C@@H]1O[C@H](CO)[C@@H](O)[C@H](O)[C@H]1O [lanatoside c] | 8.55% |
| O=C1CN=C(c2ccccc2)c2cc(Cl)ccc2N1CC1CC1 [Prazepam] | 19.3% |
| CC(C)C[C@H](CN)CC(=O)O [pregabalin] | 4.67% |
| CN(C)C(=S)SSC(=S)N(C)C [thiram] | 58.9% |
| CCC(C)(C)O [amylene hydrate] | 32.9% |
| CC(C)(C)NCC(O)c1ccccc1Cl (stereo not given) [tulobuterol] | < 0% |

| Compound | motility inhibition on day 3 |
| --- | --- |
| C[C@]12Cc3c[nH]nc3C[C@@H]1CC[C@@H]1[C@@H]2CC[C@@]2(C)[C@H]1CC[C@]2(C)O [Stanozolol] | 9.85% |
| C[N+]12CCC(CC1)C(OC(=O)C(O)(c1ccccc1)c1ccccc1)C2 (stereo not given) [clidinium bromide] | < 0% |
| OC[C@@H](O)[C@H]1O[C@@H]2O[C@H](C(Cl)(Cl)Cl)O[C@@H]2[C@H]1O [chloralose] | 14.2% |
| CC(=O)[C@H]1CC[C@H]2[C@@H]3CC[C@@H]4C[C@H](O)CC[C@]4(C)[C@H]3CC[C@]12C [eltanolone] | < 0% |
| CC(CC(C(N)=O)(c1ccccc1)c1ccccc1)N(C)C (stereo not given) [aminopentamide sulfate] | 11.3% |
| COC(=O)C(c1ccccc1)C1CCCCN1 (stereo not given) [methylphenidate hydrochloride] | 3.57% |
| CO[C@]12C[C@@H](COC(=O)c3cncc(Br)c3)CN(C)[C@@H]1Cc1cn(C)c3cccc2c13 [nicergoline] | 10.6% |
| O=[N+]([O-])c1ccc([As](=O)(O)O)cc1 [nitarsone] | 29.1% |
| CNC(C)[C@H](O)c1ccccc1 (stereo not given in full) [ephedrine (1r,2s) hydrochloride] | < 0% |
| CCN(C(C)=O)c1cccc(-c2ccnc3c(C#N)cnn23)c1 [zaleplon] | 27% |
| CC1(C)C(C=C(Cl)Cl)C1C(=O)OCc1cccc(Oc2ccccc2)c1 (stereo not given) [permethrin] | 8.45% |
| CCNC1(c2cccs2)CCCCC1=O (stereo not given) [tiletamine hydrochloride] | 7.4% |
| Cc1ccc(O)cc1.Cc1cccc(O)c1.Cc1ccccc1O [cresol] | 15.8% |
| CC[C@H]1[C@@H]2C[C@H]3[C@@H]4N(C)c5ccccc5[C@]45C[C@@H]([C@@H]2[C@H]5O)N3[C@@H]1O [ajmaline] | < 0% |
| C[C@@H]1CC[C@H]2[C@@H](C)C(=O)O[C@@H]3O[C@@]4(C)CC[C@@H]1[C@]32OO4 [artemisinin] | 16.1% |
| CNC(C)C(O)c1ccccc1 (stereo not given) [racephedrine hydrochloride] | < 0% |
| CC[C@H]1CN2CCc3cc(OC)c(OC)cc3[C@@H]2C[C@@H]1C[C@H]1NCCc2cc(OC)c(OC)cc21 [emetine] | < 0% |
| COc1cc([C@@H]2c3cc4c(cc3[C@H](O)[C@H]3COC(=O)[C@H]23)OCO4)cc(OC)c1OC [podofilox] | 0.537% |
| Cc1cccc(C)c1NC1=NCCCS1 [Xylazine hydrochloride] | 15% |
| CC(=O)OCC1=C(C(=O)O)N2C(=O)[C@@H](NC(=O)CCC[C@@H](N)C(=O)O)[C@H]2SC1 [cephalosporin c sodium] | 14.1% |
| NC(=O)C[S+]([O-])C(c1ccccc1)c1ccccc1 (stereo not given) [modafinil] | 38.7% |
| CCC1(CCC(C)C)C(=O)NC(=O)N=C1O (stereo not given) | 4.3% |
| C[C@@H](CO)NC(=O)[C@@H]1C=C2c3cccc4[nH]cc(c34)C[C@H]2N(C)C1 [ergonovine maleate] | < 0% |
| Clc1ccc(C(OCCN2CCCCC2)c2ccccc2)cc1 (stereo not given) [cloperastine hydrochloride] | 5.57% |
| O=c1[nH]c(=O)n(Cl)c(=O)n1Cl [troclosene potassium] | 14% |

Part of the list above, as labelled records.
C[N+]12CCC(CC1)C(OC(=O)C(O)(c1ccccc1)c1ccccc1)C2 (stereo not given) [clidinium bromide]
  motility inhibition on day 3: < 0%
CC[C@H]1CN2CCc3cc(OC)c(OC)cc3[C@@H]2C[C@@H]1C[C@H]1NCCc2cc(OC)c(OC)cc21 [emetine]
  motility inhibition on day 3: < 0%

(cont.)

| Compound | motility inhibition on day 3 |
| --- | --- |
| NC(=O)CN1CCCC1=O [piracetam] | 9.24% |
| C=CCN1C[C@H](C(=O)N(CCCN(C)C)C(=O)NCC)C[C@@H]2c3cccc4[nH]cc(c34)C[C@H]21 [Cabergoline] | 12.8% |
| O=P1(NCCCl)OCCCN1CCCl (stereo not given) [ifosfamide] | 12.6% |
| CC(C)c1c(CN(C)C(C)Cc2ccccc2)n(C)n(-c2ccccc2)c1=O (stereo not given) [famprofazone] | 0.96% |
| Oc1ccc(Cl)cc1 [parachlorophenol] | 3.24% |
| CCCCCCCCC(=O)NCc1ccc(O)c(OC)c1 [N-Vanillylnonanamide] | 23.4% |
| CN1C(=O)C(O)N=C(c2ccccc2)c2cc(Cl)ccc21 (stereo not given) [Temazepam] | 12.7% |
| Nc1ccc([As](=O)(O)O)cc1 [arsanilic acid] | 1.24% |
| NCCCNCCSP(=O)(O)O [amifostine] | < 0% |
| O=[N+]([O-])OCC(CO[N+](=O)[O-])O[N+](=O)[O-] [nitroglycerin] | 2.36% |
| C#CCN(C)[C@H](C)Cc1ccccc1 [R(-)-Deprenyl hydrochloride] | < 0% |
| C#CCN(C)[C@H](C)Cc1ccccc1 [selegiline hydrochloride] | 24.7% |
| CN(C)C(=O)Oc1ccc[n+](C)c1 [Pyridostigmine bromide] | 32.9% |
| C[C@@H]1O[C@@H](O[C@@H]2C=C3CC[C@@H]4[C@H](CC[C@]5(C)[C@@H](c6ccc(=O)oc6)CC[C@]45O)[C@@]3(C)CC2)[C@H](O)[C@H](O)[C@H]1O [proscillaridin] | 87.9% |
| CC(=O)Nc1cc([As](=O)(O)O)ccc1O [acetarsol] | 19.7% |
| CC(=O)[O][Hg][c]1ccccc1 [phenylmercuric acetate] | 99.4% |
| O=c1[nH]c2ccccc2n1C1CCN(CCCC(c2ccc(F)cc2)c2ccc(F)cc2)CC1 [Pimozide] | 96% |
| CN1CCc2cc3c(cc2C1O)OCO3 (stereo not given) [hydrastinine hydrochloride] | 6.34% |
| NP(N)(=O)NC(=O)c1ccc(F)cc1 [flurofamide] | 2.47% |
| CNC(=O)Oc1ccc2c(c1)[C@]1(C)CCN(C)[C@@H]1N2C [(-)-Physostigmine] | 47.1% |
| CN1[C@H]2C[C@H](OC(=O)[C@H](CO)c3ccccc3)C[C@@H]1[C@@H](O)C2 [anisodamine hydrobromide] | < 0% |
| CN(C)C(=O)Oc1cccc([N+](C)(C)C)c1 [Neostigmine bromide] | < 0% |
| COc1ccc(C(CN(C)C)C2(O)CCCCC2)cc1 (stereo not given) [venlafaxine hydrochloride] | 12% |
| C[C@H](N)[C@H](O)c1ccccc1 [L(-)-Norephedrine] | 0.783% |
| CC(C)C[C@H]1C(=O)N2CCC[C@H]2[C@]2(O)O[C@](NC(=O)[C@@H]3C[C@@H]4c5cccc6[nH]cc(c56)C[C@H]4N(C)C3)(C(C)C)C(=O)N12.CC(C)[C@@]1(NC(=O)[C@@H]2C[C@@H]3c4cccc5[nH]cc(c45)C[C@H]3N(C)C2)O[C@@]2(O)[C@@H]3CCCN3C(=O)[C@H](Cc3ccccc3)N2C1=O.CC(C)[C@H]1C(=O)N2CCC[C@H]2[C@]2(O)O[C@](NC(=O)[C@@H]3C[C@@H]4c5cccc6[nH]cc(c56)C[C@H]4N(C)C3)(C(C)C)C(=O)N12.CCC(C)[C@H]1C(=O)N2CCC[C@H]2[C@]2(O)O[C@](NC(=O)[C@@H]3C[C@@H]4c5cccc6[nH]cc(c56)C[C@H]4N(C)C3)(C(C)C)C(=O)N12 [Ergoloid Mesylates] | 11.6% |

Quoted from the results shown (5 entries):

| Compound | motility inhibition on day 3 |
| --- | --- |
| CC(C)c1c(CN(C)C(C)Cc2ccccc2)n(C)n(-c2ccccc2)c1=O (stereo not given) [famprofazone] | 0.96% |
| Oc1ccc(Cl)cc1 [parachlorophenol] | 3.24% |
| CCCCCCCCC(=O)NCc1ccc(O)c(OC)c1 [N-Vanillylnonanamide] | 23.4% |
| CN1C(=O)C(O)N=C(c2ccccc2)c2cc(Cl)ccc21 (stereo not given) [Temazepam] | 12.7% |
| Nc1ccc([As](=O)(O)O)cc1 [arsanilic acid] | 1.24% |
